# According to US10945685B2, “System and method for normalizing standardized uptake values in brain positron emission tomography (PET) images” (New York University, priority 2018, dated 2021):
# The amount applied is not stated for every result.
# Tested on: tau
# Assay: AD-NL classification from tau PET: ROC AUC and AD-NL ratio of PBP
# Format: in vivo, human
# Details: AD vs NL
# Experimental: In another embodiment, the average PBP of a particular diseased (or abnormal) group (e.g., an AD group) for a particular ROI may be compared to the PBP of a group of normal control (NL) subjects. For example, a ratio (R) of PBP may be obtained by: R=(average PBP of diseased or abnormal group)/(average PBP of NL group)
# Standardized uptake value (SUV) images were obtained by normalizing tissue radioactivity concentration by injected dose and bodyweight. Estimates of tau deposition were determined for THK53151 with the 40-60 min SUV and for AV1451 with for the 80-100 min SUV. Standard SUVR was generated by using cerebellar cortex as reference. To control the variation of SUVR measures in THK5351 and AV1451 PET caused by the off-target binding in reference region, each subject's SUV images were first transferred into standardized SUVP images, using the Peak-alignment method (as described above). In order to compare the regional SUV distribution patterns on group level, the whole brain probability density function (PDFwb) of SUVP were computed for each subject by normalizing the histograms of a subject's SUVP with the total number of intracranial voxels of that subject. Finally, the group average whole brain probability density function (PDFwb) were computed by averaging the individual subjects' PDFwb within 4 compare groups (2 tracers×2 conditions). One important advantage of SUVP over SUVR is that the Peak-alignment method standardized the range of whole brain SUV (marked in FIG. 2) into [−3,3] approximately, regardless of tracer or disease condition, thus allowing universal cutoff for different tracers, while SUVR cutoffs are tracer-dependent (e.g. 1.5 for THK and 1.19 for AV1451). Here, 1.5 is used for SUVP cutoff, representing 1.5 times std from whole brain mode. The positive binding percentage: PBP=(number of positive bring voxels)/(total number of voxels), are computed for both SUVP and SUVR in different brain tissues.
# To compare the classification accuracy of AD and NL using mean SUVR and PBP (SUVR and SUVP), the ROC curve was computed and the area under curve (AUC) was computed.
# We also computed the diagnostic accuracy in terms of AUC, as specified in Method section. […] The AD-NL ratio obtained using (average PBP of AD group)/(average PBP of NL group).
Structure (SMILES),"Diagnostic Accuracy (AUC), SUVP PBP (cerebral GM (global))","Diagnostic Accuracy (AUC), SUVR PBP (cerebral GM (global))","Diagnostic Accuracy (AUC), SUVP PBP (temporal lobe)","Diagnostic Accuracy (AUC), SUVR Mean (temporal lobe)","Diagnostic Accuracy (AUC), SUVR PBP (temporal lobe)"
[18F]c1ccc(-c2ccc3c(c2)[nH]c2ccncc23)cn1 [AV-1451],0.85,0.71,0.86,0.75,0.73
CNc1ccc(-c2ccc3cc(OC[C@H](O)CF)ccc3n2)cn1 [THK5351],,,0.96,0.89,0.78
